Source: patent US20110059469A1 (UNIVERSITY OF TOKYO, published 2011)
Substitutions are numbered along the chain they refer to. These are yes or no findings as the source states them, for the method shown. Some binding calls cover weakened binding; strength is not graded here. One block for each binder: values may come before it.

What was measured:
[1] = target: T1, human Claudin6 (CLDN6) (human) (UniProt P56747); assay: flow cytometry on Ba/F3 cells forced to express human CLDN6; parent Ba/F3 not bound
T1 sequence: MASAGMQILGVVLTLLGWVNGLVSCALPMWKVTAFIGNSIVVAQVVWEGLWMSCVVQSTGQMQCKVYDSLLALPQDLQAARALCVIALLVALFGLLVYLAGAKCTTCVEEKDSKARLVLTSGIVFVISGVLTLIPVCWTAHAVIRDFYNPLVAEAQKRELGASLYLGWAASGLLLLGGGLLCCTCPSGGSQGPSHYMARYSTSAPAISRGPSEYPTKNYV

[2] = target: T1, human Claudin6 (CLDN6) (human); assay: flow cytometry on ABC-1 and AGS cancer cells
[3] = target: T1, human Claudin6 (CLDN6) (human); assay: flow cytometry on Ba/F3 cells forced to express human CLDN6
[4] = target: T1, human Claudin6 (CLDN6) (human); assay: flow cytometry (cells not named)

B2: AE1-16 (antibody, V domains shown)
VH: EVQLQQSGPELVKPGASVKISCKASGYSFTGYFMNWVKQSHGKSLEWIGRINPYNGDTFYNQKFKGKATLTVDKSSNTAHMELRSLTSEDSAVYYCARVLFLDFDDPYLMDYWGQGTSVTVSS
VL: ENVLTQSPAIMSATLGEKVTMSCRATSNVKYMYWYQQKSGASPKLWIYYTSNLASGVPARFSGSGSGTSYSLTISSVEAADAATYYCQQFTSSPSTFGAGTKLELK
notes: also called anti-human CLDN6 monoclonal antibody AE1-16
binding [1]: binds
binding [2]: binds
binding [3]: binds

B3: AE49-11/mIgG2a (antibody, V domains shown)
VH: B2 VH with N77S
VL: ENVLTQSPAIMSATLGEKVTMSCRATSNVKYMYWYQQKSGASPKLWIYYTSNLASGVPARFSGSGSGTSYSLTISSVEAADAATYYCQQFTSSPSTFGAGTKLELKR
binding [4]: binds

The next lines start with the values.

binding [1]: binds
binding [2]: binds
binding [3]: binds
B1: AB3-1 (antibody, V domains shown)
VH: EVQLQQSGPELVKPGGSMKISCKASGYSFTGYTMNWVKQSHGKNLEWIGLINPYNGGISYNQKFKDKATLTMDKSSSTAYMELLSLTSEDSAIYFCARDYRYEGFDYWGQGTLVTVSA
VL: QIVLTQSPAIMSASLGERVTMTCTASSVVISTYLHWYQQKPGSSPKLWIYSTSNLASGVPVRFSGSGSGTSYSLTISSMEAEDAATYYCHQYHRSPWTFGGGTKLEIK
notes: also called anti-human CLDN6 monoclonal antibody AB3-1

binding [1]: binds
binding [2]: binds
binding [3]: binds
B4: AE49-11 (antibody, IgG2b, V domains shown)
VH: B2 VH with N77S
VL: B2 VL
notes: also called AE49-11 antibody; original IgG2b antibody
